Results on one molecule are retold here after EP2287285A2 (UAB RESEARCH FOUNDATION, dated 2011).

Chains of the proteins cited; added tags and fusions are not shown. Lines headed by an entry give the natural chain unless they say otherwise; changes in a name come on top.
UniProt Q29615: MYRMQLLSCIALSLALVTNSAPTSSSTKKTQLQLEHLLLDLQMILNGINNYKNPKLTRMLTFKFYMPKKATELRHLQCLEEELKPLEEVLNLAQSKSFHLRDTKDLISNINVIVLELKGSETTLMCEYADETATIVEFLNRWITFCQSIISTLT

The assay has as its target cynomolgus monkey DR5 on activated cynomolgus lymphocytes (cynomolgus monkey) (UniProt Q29615). Put plainly: flow cytometry of activated cynomolgus monkey lymphocytes, 0.5, 1, 5, 10 µg/ml TRA-8, FITC anti-mouse IgG; Kd calculated but not given.

No constants are given. Whether binding was seen depends on the method and setting. Binding calls can cover weak binding; strength is not graded here.

B1: TRA-8 monoclonal anti-human DR5 antibody (mouse-mouse hybridoma TRA-8, ATCC PTA-1428) (antibody, mouse IgG1, kappa, V domains shown)
VH: EVMLVESGGGLVKPGGSLKLSCAASGFTFSSYVMSWVRQTPEKRLEWVATISSGGSYTYYPDSVKGRFTISRDNAKNTLYLQMSSLRSEDTAMYYCARRGDSMITTDYWGQGTTLTVSS
VL: DIVMTQSHKFMSTSVGDRVSITCKASQDVGTAVAWYQQKPGQSPKLLIYWASTRHTGVPDRFTGSGSGTDFTLTISNVQSEDLADYFCQQYSSYRTFGGGTKLEIKR
notes: also called anti-DR5 antibody (clone: TRA-8)
As to B1, the binding result was “binds”.
